Source: patent US20150164762A1, “USE OF ETHANOLAMINE PHOSPHATE” (priority 2012, published 2015)

Tested on: BEAS-2B
Assay: Gene Ontology (GO) analysis of genes differentially expressed by EP
Design: species or system human
Settings: for % Count in Selection / Count in Selection: genes reduced by EP
[1] = GO: 0000236 mitotic prometaphase
[2] = GO: 0000778 condensed nuclear chromosome kinetochore
[3] = GO: 0000780 condensed nuclear chromosome, centromeric region
[4] = GO: 0001568 blood vessel development
[5] = GO: 0001944 vasculature development
[6] = GO: 0002861 regulation of inflammatory response to antigenic stimulus
[7] = GO: 0005578 proteinaceous extracellular matrix
[8] = GO: 0006334 nucleosome assembly
[9] = GO: 0006355 regulation of transcription, DNA-dependent
[10] = GO: 0006917 induction of apoptosis
[11] = GO: 0007275 multicellular organismal development
[12] = GO: 0010941 regulation of cell death
[13] = GO: 0010942 positive regulation of cell death
[14] = GO: 0016043 cellular component organization
[15] = GO: 0030154 cell differentiation
[16] = GO: 0030517 negative regulation of axon extension
[17] = GO: 0032502 developmental process
[18] = GO: 0034728 nucleosome organization
[19] = GO: 0042981 regulation of apoptosis
[20] = GO: 0043065 positive regulation of apoptosis
[21] = GO: 0048514 blood vessel morphogenesis
[22] = GO: 0048869 cellular developmental process
[23] = GO: 0050793 regulation of developmental process
[24] = GO: 0051252 regulation of RNA metabolic process
[25] = GO: 0051984 positive regulation of chromosome segregation
[26] = GO: 0051987 positive regulation of attachment of spinde microtubules to kinetochore
[27] = GO: 0065004 protein-DNA complex assembly
[28] = GO: 0071824 protein-DNA complex subunit organization
[29] = GO: 0085007 biological regulation

With `NCCOP(=O)(O)O` [EP, Ethanolamine phosphate] the “number of genes with reduced expression associated with regulation of apoptosis (GO: 0042981)” value (1 mM EP, 24 h) was 123, the “% Count in Selection, genes increased by EP” value [1] was 2.99E−01% and the “Count in Selection, genes increased by EP” value [1] was 2. For the same compound, the “% Count in Selection, genes increased by EP” value [2] was 4.48E−01%, the “Count in Selection, genes increased by EP” value [2] was 3 and the “% Count in Selection, genes increased by EP” value [3] was 5.98E−01%. The “Count in Selection, genes increased by EP” value [3] was 4, the “% Count in Selection, genes increased by EP” value (GO: 0001525 angiogenesis) was 2.09E+00% and the “Count in Selection, genes increased by EP” value (GO: 0001525 angiogenesis) was 14. For the same compound, the “% Count in Selection, genes increased by EP” value [4] was 2.99E+00%, the “Count in Selection, genes increased by EP” value [4] was 20 and the “% Count in Selection, genes increased by EP” value [5] was 2.99E+00%. For the same compound, the “Count in Selection, genes increased by EP” value [5] was 20, the “% Count in Selection, genes increased by EP” value [6] was 4.48E−01% and the “Count in Selection, genes increased by EP” value [6] was 3. The “% Count in Selection, genes increased by EP” value [7] was 3.59E+00%, the “Count in Selection, genes increased by EP” value [7] was 24 and the “% Count in Selection, genes increased by EP” value (GO: 0005607 laminin-2 complex) was 2.99E−01%. The “Count in Selection, genes increased by EP” value (GO: 0005607 laminin-2 complex) was 2, the “% Count in Selection, genes increased by EP” value [8] was 1.35E+00% and the “Count in Selection, genes increased by EP” value [8] was 9. The “% Count in Selection” value [9] was 1.38E+01%, the “Count in Selection” value [9] was 208 and the “% Count in Selection” value [10] was 4.08E+00%. The “Count in Selection” value [10] was 61, the “% Count in Selection” value [11] was 2.05E+01% and the “Count in Selection” value [11] was 306. For the same compound, the “% Count in Selection” value [12] was 8.23E+00%, the “Count in Selection” value [12] was 123 and the “% Count in Selection” value [13] was 4.95E+00%. The “Count in Selection” value [13] was 74, the “% Count in Selection, genes increased by EP” value [14] was 1.96E+01% and the “Count in Selection, genes increased by EP” value [14] was 131. The “% Count in Selection” value [15] was 1.33E+01%, the “Count in Selection” value [15] was 199 and the “% Count in Selection, genes increased by EP” value [16] was 4.48E−01%. The “Count in Selection, genes increased by EP” value [16] was 3, the “% Count in Selection, genes increased by EP” value (GO: 0031577 spindle checkpoint) was 5.98E−01% and the “Count in Selection, genes increased by EP” value (GO: 0031577 spindle checkpoint) was 4. The “% Count in Selection” value [17] was 2.29E+01%, the “Count in Selection” value [17] was 343 and the “% Count in Selection, genes increased by EP” value [18] was 1.49E+00%. For the same compound, the “Count in Selection, genes increased by EP” value [18] was 10, the “% Count in Selection” value [19] was 8.23E+00% and the “Count in Selection” value [19] was 123. For the same compound, the “% Count in Selection” value [20] was 4.95E+00%, the “Count in Selection” value [20] was 74 and the “% Count in Selection” value (GO: 0048513 organ development) was 1.22E+01%. The “Count in Selection” value (GO: 0048513 organ development) was 183, the “% Count in Selection, genes increased by EP” value [21] was 2.69E+00% and the “Count in Selection, genes increased by EP” value [21] was 18. For the same compound, the “% Count in Selection” value [22] was 1.36E+01%, the “Count in Selection” value [22] was 203 and the “% Count in Selection” value [23] was 5.95E+00%. The “Count in Selection” value [23] was 89, the “% Count in Selection” value [24] was 1.41E+01% and the “Count in Selection” value [24] was 211. The “% Count in Selection, genes increased by EP” value [25] was 2.99E−01%, the “Count in Selection, genes increased by EP” value [25] was 2 and the “% Count in Selection, genes increased by EP” value [26] was 2.99E−01%. The “Count in Selection, genes increased by EP” value [26] was 2, the “% Count in Selection, genes increased by EP” value [27] was 1.49E+00% and the “Count in Selection, genes increased by EP” value [27] was 10. The “% Count in Selection, genes increased by EP” value [28] was 1.64E+00%, the “Count in Selection, genes increased by EP” value [28] was 11 and the “% Count in Selection” value [29] was 5.28E+01%. For the same compound, the “Count in Selection” value [29] was 790.
